Some results were stated once for a whole list of compounds, not compound by compound.
What follows are compounds tested on PPARα, PPARγ, or PPARδ (assay: PPAR activity assays (biochemical and cell based)). Conditions: at least one of the assays, for at least one of PPARα.

EC50, ≤ 1 µM:
COc1ccc2c(c1)c(CCC(=O)O)cn2S(=O)(=O)c1cccc(-c2ccc(OC)nc2)c1 [Compound P-0058, 3-{5-Methoxy-1-[3-(6-methoxy-pyridin-3-yl)-benzenesulfonyl]-1H-indol-3-yl}-propionic acid]
COc1ccc2c(c1)c(CCC(=O)O)cn2S(=O)(=O)c1cccc(-c2ccc(C)c(F)c2)c1 [Compound P-0059, 3-[1-(3′-Fluoro-4′-methyl-biphenyl-3-sulfonyl)-5-methoxy-1H-indol-3-yl]-propionic acid]
COc1ccc2c(c1)c(CCC(=O)O)cn2S(=O)(=O)c1cccc(-c2ccc(OC)c(F)c2)c1 [Compound P-0060, 3-[1-(3′-Fluoro-4′-methoxy-biphenyl-3-sulfonyl)-5-methoxy-1H-indol-3-yl]-propionic acid]
COc1ccc2c(c1)c(CCC(=O)O)cn2S(=O)(=O)c1cccc(-c2cnc(OC)nc2)c1 [Compound P-0061, 3-{5-Methoxy-1-[3-(2-methoxy-pyrimidin-5-yl)-benzenesulfonyl]-1H-indol-3-yl}-propionic acid]
COc1ccc2c(c1)c(CCC(=O)O)cn2S(=O)(=O)c1cccc(-c2cnc(OC)nc2OC)c1 [Compound P-0062, 3-{1-[3-(2,4-Dimethoxy-pyrimidin-5-yl)-benzenesulfonyl]-5-methoxy-1H-indol-3-yl}-propionic acid]
COc1ccc2c(c1)c(CCC(=O)O)cn2S(=O)(=O)c1cccc(-c2ccc(C(F)(F)F)cc2F)c1 [Compound P-0063, 3-[1-(2′-Fluoro-4′-trifluoromethyl-biphenyl-3-sulfonyl)-5-methoxy-1H-indol-3-yl]-propionic acid]
COc1ccc2c(c1)c(CCC(=O)O)cn2S(=O)(=O)c1cccc(-c2cnn(CCC(C)C)c2)c1 [Compound P-0064, 3-(5-Methoxy-1-{3-[1-(3-methyl-butyl)-1H-pyrazol-4-yl]-benzenesulfonyl}-1H-indol-3yl)-propionic acid]
COc1ccc2c(c1)c(CCC(=O)O)cn2S(=O)(=O)c1cccc(-c2cnn(CC(C)C)c2)c1 [Compound P-0065, 3-{1-[3-(1-Isobutyl-1H-pyrazol-4-yl)-benzenesulfonyl]-5-methoxy-1H-indol-3-yl}-propionic acid]
COc1ccc(-c2cccc(S(=O)(=O)n3cc(CCC(=O)O)c4cc(OC)ccc43)c2)c(F)c1 [Compound P-0066, 3-[1-(2′-Fluoro-4′-methoxy-biphenyl-3-sulfonyl)-5-methoxy-1H-indol-3-yl]-propionic acid]
COc1ccc2c(c1)c(CCC(=O)O)cn2S(=O)(=O)c1cccc(-c2ccc(Cl)cc2F)c1 [Compound P-0067, 3-[1-(4′-Chloro-2′-fluoro-biphenyl-3-sulfonyl)-5-methoxy-1H-indol-3-yl]-propionic acid]
O=C(O)CCc1cn(S(=O)(=O)c2cccc(-c3ccc(F)cc3F)c2)c2ccc(F)cc12 [Compound P-0068, 3-[1-(2′,4′-Difluoro-biphenyl-3-sulfonyl)-5-fluoro-1H-indol-3-yl]-propionic acid]
O=C(O)CCc1cn(S(=O)(=O)c2cccc(-c3ccc(C(F)(F)F)cc3F)c2)c2ccc(F)cc12 [Compound P-0069, 3-[5-Fluoro-1-(2′-fluoro-4′-trifluoromethyl-biphenyl-3-sulfonyl)-1H-indol-3-yl]-propionic acid]
O=C(O)CCc1cn(S(=O)(=O)c2cccc(-c3cccc(Cl)c3)c2)c2ccccc12 [Compound P-0070, 3-[1-(3′-Chloro-biphenyl-3-sulfonyl)-1H-indol-3-yl]-propionic acid]
O=C(O)CCc1cn(S(=O)(=O)c2cccc(-c3ccc(Cl)cc3)c2)c2ccccc12 [Compound P-0071, 3-[1-(4′-Chloro-biphenyl-3-sulfonyl)-1H-indol-3-yl]-propionic acid]
COc1ccc(-c2cccc(S(=O)(=O)n3cc(CCC(=O)O)c4ccccc43)c2)cc1 [Compound P-0072, 3-[1-(4′-Methoxy-biphenyl-3-sulfonyl)-1H-indol-3-yl]-propionic acid]
O=C(O)CCc1cn(S(=O)(=O)c2cccc(-c3ccc(F)cc3)c2)c2ccccc12 [Compound P-0073, 3-[1-(4′-Fluoro-biphenyl-3-sulfonyl)-1H-indol-3-yl]-propionic acid]
O=C(O)CCc1cn(S(=O)(=O)c2cccc(-c3ccc(F)cc3F)c2)c2ccccc12 [Compound P-0074, 3-[1-(2′,4′-Difluoro-biphenyl-3-sulfonyl)-1H-indol-3-yl]-propionic acid]
O=C(O)CCc1cn(S(=O)(=O)c2cccc(-c3ccc(F)c(Cl)c3)c2)c2ccccc12 [Compound P-0075, 3-[1-(3′-Chloro-4′-fluoro-biphenyl-3-sulfonyl)-1H-indol-3-yl]-propionic acid]
CCOc1ccc(-c2cccc(S(=O)(=O)n3cc(CCC(=O)O)c4ccccc43)c2)cc1 [Compound P-0076, 3-[1-(4′-Ethoxy-biphenyl-3-sulfonyl)-1H-indol-3-yl]-propionic acid]
O=C(O)CCc1cn(S(=O)(=O)c2cccc(-c3cccc(F)c3)c2)c2ccccc12 [Compound P-0077, 3-[1-(3′-Fluoro-biphenyl-3-sulfonyl)-1H-indol-3-yl]-propionic acid]
O=C(O)CCc1cn(S(=O)(=O)c2cccc(-c3ccccc3F)c2)c2ccccc12 [Compound P-0078, 3-[1-(2′-Fluoro-biphenyl-3-sulfonyl)-1H-indol-3-yl]-propionic acid]
O=C(O)CCc1cn(S(=O)(=O)c2cccc(-c3cccc(OC(F)(F)F)c3)c2)c2ccccc12 [Compound P-0079, 3-[1-(3′-Trifluoromethoxy-biphenyl-3-sulfonyl)-1H-indol-3-yl]-propionic acid]
O=C(O)CCc1cn(S(=O)(=O)c2cccc(-c3ccc(OC(F)(F)F)cc3)c2)c2ccccc12 [Compound P-0080, 3-[1-(4′-Trifluoromethoxy-biphenyl-3-sulfonyl)-1H-indol-3-yl]-propionic acid]
O=C(O)CCc1cn(S(=O)(=O)c2cccc(-c3cccc(C(F)(F)F)c3)c2)c2ccccc12 [Compound P-0081, 3-[1-(3′-Trifluoromethyl-biphenyl-3-sulfonyl)-1H-indol-3-yl]-propionic acid]
O=C(O)CCc1cn(S(=O)(=O)c2cccc(-c3ccc(OCc4ccccc4)cc3F)c2)c2ccccc12 [Compound P-0082, 3-[1-(4′-Benzyloxy-2′-fluoro-biphenyl-3-sulfonyl)-1H-indol-3-yl]-propionic acid]
COc1ccc(-c2cccc(S(=O)(=O)n3cc(CCC(=O)O)c4ccccc43)c2)cn1 [Compound P-0083, 3-{1-[3-(6-Methoxy-pyridin-3-yl)-benzenesulfonyl]-1H-indol-3-yl}-propionic acid]
Cc1ccc(-c2cccc(S(=O)(=O)n3cc(CCC(=O)O)c4ccccc43)c2)cc1F [Compound P-0084, 3-[1-(3′-Fluoro-4′-methyl-biphenyl-3-sulfonyl)-1H-indol-3-yl]-propionic acid]
COc1ccc(-c2cccc(S(=O)(=O)n3cc(CCC(=O)O)c4ccccc43)c2)cc1F [Compound P-0085, 3-[1-(3′-Fluoro-4′-methoxy-biphenyl-3-sulfonyl)-1H-indol-3-yl]-propionic acid]

Reference: patent US8053463B2, “PPAR active compounds” (Plexxikon Inc., priority 2007, dated 2011)
